Reference: the supplement of paper PMC6411743
± gives the standard deviation of the averaged measurements. This is one part of the list.

Amino acid sequences for entries named in this document (tags omitted). A change or cut given only in a name is not applied to a line headed by its entry.
UniProt Q99442: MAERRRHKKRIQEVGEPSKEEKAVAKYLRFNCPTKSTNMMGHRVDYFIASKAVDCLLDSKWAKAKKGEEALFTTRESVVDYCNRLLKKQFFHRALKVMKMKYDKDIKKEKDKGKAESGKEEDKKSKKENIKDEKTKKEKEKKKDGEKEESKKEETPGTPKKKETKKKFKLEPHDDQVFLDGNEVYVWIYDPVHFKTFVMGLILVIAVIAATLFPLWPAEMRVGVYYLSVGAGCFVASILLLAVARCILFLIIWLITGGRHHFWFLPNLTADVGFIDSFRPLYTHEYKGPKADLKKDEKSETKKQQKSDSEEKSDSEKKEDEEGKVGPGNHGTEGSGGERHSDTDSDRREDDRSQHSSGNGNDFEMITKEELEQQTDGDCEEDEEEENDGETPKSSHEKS
UniProt O95248: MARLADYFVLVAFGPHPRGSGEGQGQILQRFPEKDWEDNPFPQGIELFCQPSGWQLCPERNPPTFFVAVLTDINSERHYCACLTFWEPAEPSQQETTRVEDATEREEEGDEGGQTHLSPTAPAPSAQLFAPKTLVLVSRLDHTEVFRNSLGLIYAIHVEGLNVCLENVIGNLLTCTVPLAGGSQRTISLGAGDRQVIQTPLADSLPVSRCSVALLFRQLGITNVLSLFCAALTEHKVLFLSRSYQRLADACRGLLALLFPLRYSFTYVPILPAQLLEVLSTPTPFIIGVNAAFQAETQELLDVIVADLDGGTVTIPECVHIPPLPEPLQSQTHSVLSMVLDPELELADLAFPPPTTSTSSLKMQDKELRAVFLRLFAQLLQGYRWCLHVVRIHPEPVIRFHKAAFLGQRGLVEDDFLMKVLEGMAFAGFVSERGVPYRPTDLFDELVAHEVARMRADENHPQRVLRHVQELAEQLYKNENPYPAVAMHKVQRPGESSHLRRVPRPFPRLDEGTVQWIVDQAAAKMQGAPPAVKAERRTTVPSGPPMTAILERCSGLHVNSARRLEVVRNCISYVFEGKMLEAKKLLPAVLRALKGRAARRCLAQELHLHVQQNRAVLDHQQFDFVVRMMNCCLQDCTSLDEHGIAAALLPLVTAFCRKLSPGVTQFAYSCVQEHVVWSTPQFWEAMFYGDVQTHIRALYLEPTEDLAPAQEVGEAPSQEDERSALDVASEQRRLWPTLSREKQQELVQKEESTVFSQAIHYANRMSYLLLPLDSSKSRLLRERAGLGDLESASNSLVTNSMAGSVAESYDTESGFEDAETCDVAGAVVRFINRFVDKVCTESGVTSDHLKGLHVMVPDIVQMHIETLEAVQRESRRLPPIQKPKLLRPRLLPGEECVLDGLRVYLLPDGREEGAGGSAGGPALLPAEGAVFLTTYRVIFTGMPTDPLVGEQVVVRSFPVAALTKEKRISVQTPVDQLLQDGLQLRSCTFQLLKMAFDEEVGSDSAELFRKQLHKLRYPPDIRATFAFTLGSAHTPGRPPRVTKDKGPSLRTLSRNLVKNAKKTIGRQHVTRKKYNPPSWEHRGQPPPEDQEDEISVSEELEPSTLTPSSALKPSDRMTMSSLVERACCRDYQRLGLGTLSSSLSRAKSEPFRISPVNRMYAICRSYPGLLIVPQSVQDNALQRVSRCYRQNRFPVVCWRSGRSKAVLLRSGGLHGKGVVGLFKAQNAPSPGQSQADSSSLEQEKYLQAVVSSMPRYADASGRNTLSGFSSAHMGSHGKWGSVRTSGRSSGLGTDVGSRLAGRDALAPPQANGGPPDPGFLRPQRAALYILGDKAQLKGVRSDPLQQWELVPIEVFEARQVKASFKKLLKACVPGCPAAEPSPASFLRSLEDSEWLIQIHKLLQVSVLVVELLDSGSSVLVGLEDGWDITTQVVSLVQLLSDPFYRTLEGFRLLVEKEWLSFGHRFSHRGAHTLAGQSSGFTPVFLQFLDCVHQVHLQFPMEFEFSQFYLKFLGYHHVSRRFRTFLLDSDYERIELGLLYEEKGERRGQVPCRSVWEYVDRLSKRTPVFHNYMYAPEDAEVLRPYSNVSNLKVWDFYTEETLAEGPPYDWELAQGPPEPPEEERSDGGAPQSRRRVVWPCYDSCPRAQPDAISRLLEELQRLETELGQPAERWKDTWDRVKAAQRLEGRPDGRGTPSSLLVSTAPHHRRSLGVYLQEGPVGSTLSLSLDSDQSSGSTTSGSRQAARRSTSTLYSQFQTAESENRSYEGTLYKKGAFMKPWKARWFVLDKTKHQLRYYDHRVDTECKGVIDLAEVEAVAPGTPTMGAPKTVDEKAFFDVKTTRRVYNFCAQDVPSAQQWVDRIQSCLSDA
UniProt Q9H2H9: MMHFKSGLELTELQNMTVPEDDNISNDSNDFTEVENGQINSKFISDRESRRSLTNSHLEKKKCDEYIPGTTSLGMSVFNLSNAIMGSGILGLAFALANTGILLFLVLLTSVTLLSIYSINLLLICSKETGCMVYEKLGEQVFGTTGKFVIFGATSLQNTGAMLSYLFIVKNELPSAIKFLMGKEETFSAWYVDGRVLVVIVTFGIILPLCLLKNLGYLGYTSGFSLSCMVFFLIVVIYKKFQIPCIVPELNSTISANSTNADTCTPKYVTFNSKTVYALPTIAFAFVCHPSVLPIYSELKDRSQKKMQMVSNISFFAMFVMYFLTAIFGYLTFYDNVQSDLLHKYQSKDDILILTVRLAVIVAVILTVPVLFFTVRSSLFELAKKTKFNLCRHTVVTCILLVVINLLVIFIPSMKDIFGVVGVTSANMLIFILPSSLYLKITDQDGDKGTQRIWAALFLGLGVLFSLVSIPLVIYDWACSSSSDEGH
UniProt P37837: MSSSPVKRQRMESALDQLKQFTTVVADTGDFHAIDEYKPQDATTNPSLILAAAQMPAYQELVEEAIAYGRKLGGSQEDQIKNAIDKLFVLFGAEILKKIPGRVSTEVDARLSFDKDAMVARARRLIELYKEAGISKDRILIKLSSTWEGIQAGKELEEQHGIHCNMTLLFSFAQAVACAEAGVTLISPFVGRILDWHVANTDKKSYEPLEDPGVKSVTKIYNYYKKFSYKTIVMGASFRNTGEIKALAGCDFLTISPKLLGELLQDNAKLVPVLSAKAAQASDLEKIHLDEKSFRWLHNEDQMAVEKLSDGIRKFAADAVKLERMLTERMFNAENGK
UniProt Q9BTT0: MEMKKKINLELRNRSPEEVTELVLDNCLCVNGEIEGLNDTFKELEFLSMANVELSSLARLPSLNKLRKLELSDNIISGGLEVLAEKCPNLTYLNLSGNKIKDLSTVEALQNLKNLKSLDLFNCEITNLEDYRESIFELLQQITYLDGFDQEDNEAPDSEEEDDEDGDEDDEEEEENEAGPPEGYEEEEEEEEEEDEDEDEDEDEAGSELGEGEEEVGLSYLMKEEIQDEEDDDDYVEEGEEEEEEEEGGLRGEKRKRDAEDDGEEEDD
UniProt Q96EK7: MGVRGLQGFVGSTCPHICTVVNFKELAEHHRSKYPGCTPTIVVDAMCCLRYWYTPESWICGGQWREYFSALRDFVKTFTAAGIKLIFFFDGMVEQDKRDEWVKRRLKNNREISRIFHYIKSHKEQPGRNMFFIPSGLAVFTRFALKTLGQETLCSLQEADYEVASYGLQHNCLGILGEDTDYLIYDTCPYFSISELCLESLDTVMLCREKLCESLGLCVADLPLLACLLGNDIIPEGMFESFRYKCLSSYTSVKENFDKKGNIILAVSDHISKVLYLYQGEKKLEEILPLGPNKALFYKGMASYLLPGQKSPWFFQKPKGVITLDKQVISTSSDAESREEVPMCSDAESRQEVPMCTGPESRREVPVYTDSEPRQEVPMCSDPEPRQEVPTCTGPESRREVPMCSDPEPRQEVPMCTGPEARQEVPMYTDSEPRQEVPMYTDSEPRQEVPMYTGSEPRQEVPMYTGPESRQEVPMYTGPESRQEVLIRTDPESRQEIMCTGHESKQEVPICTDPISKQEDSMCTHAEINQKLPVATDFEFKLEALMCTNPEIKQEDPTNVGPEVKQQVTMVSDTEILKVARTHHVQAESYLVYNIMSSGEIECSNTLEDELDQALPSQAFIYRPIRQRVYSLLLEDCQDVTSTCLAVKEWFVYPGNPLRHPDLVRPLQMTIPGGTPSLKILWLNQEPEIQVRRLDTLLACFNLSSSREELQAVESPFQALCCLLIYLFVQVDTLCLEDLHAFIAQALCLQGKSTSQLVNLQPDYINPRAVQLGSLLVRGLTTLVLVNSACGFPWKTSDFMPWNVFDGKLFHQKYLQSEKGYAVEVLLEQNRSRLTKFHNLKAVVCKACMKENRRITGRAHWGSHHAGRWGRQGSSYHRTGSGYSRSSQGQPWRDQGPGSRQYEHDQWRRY
UniProt Q6UW02: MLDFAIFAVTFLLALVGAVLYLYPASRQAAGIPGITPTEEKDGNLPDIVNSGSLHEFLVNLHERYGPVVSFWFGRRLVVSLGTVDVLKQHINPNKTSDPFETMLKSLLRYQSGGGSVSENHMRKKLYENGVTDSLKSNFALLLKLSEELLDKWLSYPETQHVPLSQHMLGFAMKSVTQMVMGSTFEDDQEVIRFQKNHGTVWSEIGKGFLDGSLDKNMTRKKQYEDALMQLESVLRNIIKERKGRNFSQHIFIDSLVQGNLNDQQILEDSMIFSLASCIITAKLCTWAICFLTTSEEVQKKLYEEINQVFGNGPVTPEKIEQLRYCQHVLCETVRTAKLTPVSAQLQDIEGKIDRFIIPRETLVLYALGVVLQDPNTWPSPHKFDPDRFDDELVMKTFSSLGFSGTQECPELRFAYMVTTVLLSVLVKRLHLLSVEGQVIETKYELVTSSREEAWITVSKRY
UniProt P51957: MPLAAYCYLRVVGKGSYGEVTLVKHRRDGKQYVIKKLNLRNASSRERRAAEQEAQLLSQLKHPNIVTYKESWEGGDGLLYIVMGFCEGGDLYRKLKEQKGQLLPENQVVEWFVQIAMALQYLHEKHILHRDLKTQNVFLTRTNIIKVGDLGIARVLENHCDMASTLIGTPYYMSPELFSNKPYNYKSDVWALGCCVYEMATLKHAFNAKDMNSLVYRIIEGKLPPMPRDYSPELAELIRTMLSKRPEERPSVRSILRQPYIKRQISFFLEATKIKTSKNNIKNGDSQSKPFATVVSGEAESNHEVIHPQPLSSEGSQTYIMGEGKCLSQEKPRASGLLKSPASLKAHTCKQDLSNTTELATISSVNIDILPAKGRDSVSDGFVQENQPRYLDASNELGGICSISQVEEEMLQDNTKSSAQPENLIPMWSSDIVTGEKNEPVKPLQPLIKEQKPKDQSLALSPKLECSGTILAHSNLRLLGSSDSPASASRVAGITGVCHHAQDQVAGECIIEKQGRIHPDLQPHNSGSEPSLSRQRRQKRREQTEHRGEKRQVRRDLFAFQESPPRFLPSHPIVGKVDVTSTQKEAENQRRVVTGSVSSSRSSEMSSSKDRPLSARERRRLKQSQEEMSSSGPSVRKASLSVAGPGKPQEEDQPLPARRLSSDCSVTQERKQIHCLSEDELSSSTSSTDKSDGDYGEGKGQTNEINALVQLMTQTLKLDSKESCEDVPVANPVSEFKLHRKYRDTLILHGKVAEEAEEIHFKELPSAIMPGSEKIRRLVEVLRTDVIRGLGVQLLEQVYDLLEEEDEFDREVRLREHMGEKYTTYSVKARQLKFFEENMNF
UniProt P05556, whole entry: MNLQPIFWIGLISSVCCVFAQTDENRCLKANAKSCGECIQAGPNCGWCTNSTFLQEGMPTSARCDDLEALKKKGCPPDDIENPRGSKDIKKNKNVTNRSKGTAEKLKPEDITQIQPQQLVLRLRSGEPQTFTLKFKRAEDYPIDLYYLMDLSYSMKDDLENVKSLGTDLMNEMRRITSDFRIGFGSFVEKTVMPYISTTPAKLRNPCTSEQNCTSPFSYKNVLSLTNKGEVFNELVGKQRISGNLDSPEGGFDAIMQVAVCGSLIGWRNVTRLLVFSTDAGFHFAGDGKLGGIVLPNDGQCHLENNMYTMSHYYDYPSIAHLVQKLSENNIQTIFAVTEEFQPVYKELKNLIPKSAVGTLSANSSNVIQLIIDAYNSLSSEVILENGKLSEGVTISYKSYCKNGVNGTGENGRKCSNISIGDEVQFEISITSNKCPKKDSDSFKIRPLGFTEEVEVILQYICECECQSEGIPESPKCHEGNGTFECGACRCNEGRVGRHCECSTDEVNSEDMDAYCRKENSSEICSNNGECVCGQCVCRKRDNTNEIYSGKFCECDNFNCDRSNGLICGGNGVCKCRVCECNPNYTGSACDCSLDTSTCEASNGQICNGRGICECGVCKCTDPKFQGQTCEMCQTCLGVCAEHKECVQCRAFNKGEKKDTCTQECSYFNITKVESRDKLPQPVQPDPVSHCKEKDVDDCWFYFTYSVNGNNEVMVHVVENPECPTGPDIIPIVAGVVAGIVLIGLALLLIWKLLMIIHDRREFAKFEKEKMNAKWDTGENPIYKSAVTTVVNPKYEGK
UniProt P25208: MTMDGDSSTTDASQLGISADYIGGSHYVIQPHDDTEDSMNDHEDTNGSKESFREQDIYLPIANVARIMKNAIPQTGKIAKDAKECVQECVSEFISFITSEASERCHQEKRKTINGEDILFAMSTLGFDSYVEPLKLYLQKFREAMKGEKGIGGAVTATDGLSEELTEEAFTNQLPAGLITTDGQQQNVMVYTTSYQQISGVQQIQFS

Compound: Nc1nc2c(ncn2[C@@H]2O[C@H](COP(=O)(O)OP(=O)(O)OP(=O)(O)O)[C@@H](O)[C@H]2O)c(=O)[nH]1 [guanosine triphosphate]
Assay: NP40-soluble protein abundance relative to vehicle (solubility fold change) (ratio); higher = more soluble protein in presence of GTP
Summary of the method: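 Data come from three independent experiments in which Dounce-homogenised Jurkat crude lysate was treated at eight concentrations from 0.1 to 10 mM. Treatment ran 10 min at room temperature and then 3 min at 37 °C, after which 0.8% NP40 and benzonase were added for 60 min at 4 °C before ultracentrifugation. The supernatant underwent TMT labelling and LC-MS/MS, and vsn-normalised intensities were expressed as fold change against the detergent-processed vehicle in each replicate.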

Target | NP40-soluble protein abundance (concentration: 0.1mM) | NP40-soluble protein abundance (concentration: 0.5mM) | NP40-soluble protein abundance (concentration: 1mM) | NP40-soluble protein abundance (concentration: 2mM) | NP40-soluble protein abundance (concentration: 4mM) | NP40-soluble protein abundance (concentration: 6mM) | NP40-soluble protein abundance (concentration: 8mM) | NP40-soluble protein abundance (concentration: 10mM)
F8WF48 and related entries (UniProt Q99442) | 0.941 ± 0.026 | 0.961 ± 0.035 | 0.938 ± 0.045 | 0.882 ± 0.073 | 0.888 ± 0.077 | 0.905 ± 0.062 | 0.935 ± 0.031 | 0.895 ± 0.048
G5E933 and related entries (UniProt O95248) | 1.05 ± 0.016 | 1.05 ± 0.032 | 0.997 ± 0.022 | 1.08 ± 0.049 | 1.08 ± 0.034 | 1.08 ± 0.063 | 1.03 ± 0.027 | 1 ± 0.056
G3V2T4 and related entries (UniProt Q99538) | 0.917 ± 0.053 | 0.898 ± 0.047 | 0.949 ± 0.04 | 0.912 ± 0.033 | 0.871 ± 0.076 | 0.923 ± 0.085 | 0.916 ± 0.073 | 0.935 ± 0.035
F8VX04 and related entries (UniProt Q9H2H9) | 0.959 ± 0.2 | 0.968 ± 0.11 | 0.874 ± 0.16 | 0.874 ± 0.1 | 0.985 ± 0.23 | 0.858 ± 0.19 | 0.89 ± 0.15 | 0.912 ± 0.18
E7EWW0 and related entries (UniProt Q7Z3J2) | 1.09 ± 0.013 | 1.07 ± 0.037 | 1.04 ± 0.046 | 1.03 ± 0.066 | 1.04 ± 0.077 | 1.03 ± 0.051 | 1.03 ± 0.11 | 0.986 ± 0.053
F5GZ97 and related entries (UniProt Q9Y3C0) | 0.987 ± 0.074 | 0.942 ± 0.073 | 1.12 ± 0.1 | 1.08 ± 0.039 | 1.135 ± 0.0065 | 1.13 ± 0.019 | 1.05 ± 0.093 | 1.12 ± 0.066
E9PKI8 and related entries (UniProt P37837) | 0.912 ± 0.05 | 0.904 ± 0.08 | 0.859 ± 0.15 | 0.846 ± 0.11 | 0.83 ± 0.12 | 0.815 ± 0.18 | 0.854 ± 0.08 | 0.843 ± 0.1
G3V529 and related entries (UniProt Q9GZR7) | 0.996 ± 0.024 | 1.01 ± 0.019 | 0.978 ± 0.037 | 0.962 ± 0.012 | 0.968 ± 0.032 | 0.984 ± 0.015 | 0.993 ± 0.053 | 1.03 ± 0.051
E7ETB3 and related entries (UniProt Q9ULA0) | 1.04 ± 0.052 | 1.08 ± 0.071 | 0.998 ± 0.097 | 1.08 ± 0.15 | 1.05 ± 0.14 | 1.06 ± 0.15 | 1.03 ± 0.12 | 1.02 ± 0.11
E9PPH5 and related entries (UniProt Q9BTT0) | 0.838 ± 0.058 | 0.874 ± 0.062 | 0.978 ± 0.05 | 0.94 ± 0.045 | 0.937 ± 0.056 | 0.946 ± 0.037 | 0.958 ± 0.038 | 1.08 ± 0.079
F5GY05 (UniProt Q96EK7) | 1.06 ± 0.034 | 1 ± 0.11 | 1.01 ± 0.036 | 1.06 ± 0.083 | 1 ± 0.047 | 0.99 ± 0.042 | 1.05 ± 0.083 | 1.05 ± 0.13
G3XAI2 and related entries (UniProt P07942) | 1.02 ± 0.19 | 0.952 ± 0.17 | 0.922 ± 0.12 | 0.924 ± 0.26 | 0.955 ± 0.2 | 0.929 ± 0.17 | 0.948 ± 0.15 | 0.966 ± 0.15
E7ERS3 and related entries (UniProt Q86VM9) | 0.983 ± 0.031 | 1.005 ± 0.0053 | 1.12 ± 0.045 | 1.15 ± 0.037 | 1.25 ± 0.066 | 1.29 ± 0.047 | 1.37 ± 0.12 | 1.36 ± 0.16
E9PHG5 and related entries (UniProt Q6UW02) | 1.1 ± 0.21 | 1.04 ± 0.17 | 1.01 ± 0.075 | 1.04 ± 0.061 | 0.955 ± 0.16 | 0.984 ± 0.14 | 0.882 ± 0.25 | 0.884 ± 0.14
E7EX48 and related entries (UniProt P51957) | 1.01 ± 0.097 | 0.987 ± 0.21 | 0.961 ± 0.21 | 1.01 ± 0.2 | 0.986 ± 0.21 | 0.957 ± 0.23 | 0.985 ± 0.25 | 1.06 ± 0.25
E7EQR4 and related entries (UniProt P15311) | 0.95 ± 0.033 | 0.978 ± 0.037 | 0.907 ± 0.055 | 0.865 ± 0.073 | 0.837 ± 0.07 | 0.872 ± 0.072 | 0.878 ± 0.051 | 0.846 ± 0.071
F5H269 and related entries (UniProt Q9Y485) | 0.991 ± 0.013 | 1.11 ± 0.081 | 1.05 ± 0.096 | 1.01 ± 0.087 | 1.04 ± 0.09 | 1.06 ± 0.088 | 1.12 ± 0.15 | 1.11 ± 0.11
F5H527 and related entries (UniProt Q76I76) | 1.01 ± 0.015 | 1.05 ± 0.035 | 1.1 ± 0.04 | 1.03 ± 0.033 | 1.01 ± 0.061 | 1.03 ± 0.05 | 1.07 ± 0.035 | 1.03 ± 0.03
E7EUI6 and related entries (UniProt P05556) | 0.897 ± 0.072 | 0.907 ± 0.079 | 0.942 ± 0.063 | 0.916 ± 0.096 | 0.895 ± 0.087 | 0.921 ± 0.071 | 0.924 ± 0.043 | 0.953 ± 0.1
E7EQY1 and related entries (UniProt Q96C01) | 0.879 ± 0.058 | 0.859 ± 0.03 | 1.03 ± 0.07 | 0.987 ± 0.047 | 0.976 ± 0.039 | 0.983 ± 0.073 | 0.975 ± 0.11 | 1.07 ± 0.064
E7ET76 and related entries (UniProt P19440) | 0.882 ± 0.18 | 0.902 ± 0.2 | 0.902 ± 0.2 | 0.879 ± 0.17 | 0.923 ± 0.15 | 0.916 ± 0.095 | 0.92 ± 0.12 | 0.927 ± 0.15
E9PC90 and related entries (UniProt P14635) | 0.944 ± 0.031 | 0.911 ± 0.058 | 0.996 ± 0.056 | 0.984 ± 0.086 | 0.971 ± 0.068 | 0.991 ± 0.1 | 0.996 ± 0.076 | 1.03 ± 0.067
F8VSL3 and related entries (UniProt P25208) | 0.877 ± 0.072 | 0.852 ± 0.035 | 0.895 ± 0.079 | 0.827 ± 0.13 | 0.774 ± 0.077 | 0.848 ± 0.099 | 0.866 ± 0.046 | 0.859 ± 0.11
E7ESG2 and related entries (UniProt Q9HAW4) | 1.04 ± 0.056 | 1.02 ± 0.059 | 1.05 ± 0.058 | 0.997 ± 0.083 | 1.02 ± 0.067 | 1.01 ± 0.058 | 1.09 ± 0.032 | 1.02 ± 0.056
F5H8D0 and related entries (UniProt Q96GC5) | 1.07 ± 0.094 | 1.31 ± 0.21 | 1.39 ± 0.35 | 1.56 ± 0.41 | 1.53 ± 0.4 | 1.61 ± 0.41 | 1.64 ± 0.53 | 1.61 ± 0.53
F5GYK2 and related entries (UniProt Q9NRL3) | 1.03 ± 0.025 | 1.03 ± 0.093 | 1.05 ± 0.045 | 1.04 ± 0.055 | 1.07 ± 0.027 | 1.03 ± 0.019 | 1.1 ± 0.071 | 1.08 ± 0.094

2 consecutive entries out of the list so far:
Target | NP40-soluble protein abundance (concentration: 0.1mM) | NP40-soluble protein abundance (concentration: 0.5mM) | NP40-soluble protein abundance (concentration: 1mM) | NP40-soluble protein abundance (concentration: 2mM) | NP40-soluble protein abundance (concentration: 4mM) | NP40-soluble protein abundance (concentration: 6mM) | NP40-soluble protein abundance (concentration: 8mM) | NP40-soluble protein abundance (concentration: 10mM)
E9PHG5 and related entries (UniProt Q6UW02) | 1.1 ± 0.21 | 1.04 ± 0.17 | 1.01 ± 0.075 | 1.04 ± 0.061 | 0.955 ± 0.16 | 0.984 ± 0.14 | 0.882 ± 0.25 | 0.884 ± 0.14
E7EX48 and related entries (UniProt P51957) | 1.01 ± 0.097 | 0.987 ± 0.21 | 0.961 ± 0.21 | 1.01 ± 0.2 | 0.986 ± 0.21 | 0.957 ± 0.23 | 0.985 ± 0.25 | 1.06 ± 0.25
